{"source": "patent US10526416B2", "about": "“Anti-HER3 antibodies and uses of same” (Yeda Research and Development Co. Ltd., priority 2014, dated 2020)", "test_system": "EGFR phosphorylation", "test": "Western blot of EGFR phosphorylation in PC9ER-AZDR cells", "type": "cell-based, human", "settings": "6 hours, 1 μM", "note": "At least one compound was matched to its structure with a doubt left."}
{"compound": "C=CC(=O)Nc1cccc(Nc2nc(Nc3ccc(N4CCN(C(C)=O)CC4)cc3OC)ncc2C(F)(F)F)c1", "note": "[CO-1686, rociletinib]", "values": [{"measurement": "EGFR phosphorylation in PC9ER-AZDR cells on exposure", "result": "EGFR remained phosphorylated"}]}
